Assay results published in PMC12486403.

Amino acid sequences for entries named in this document (tags omitted).
UniProt Q9Y6M1: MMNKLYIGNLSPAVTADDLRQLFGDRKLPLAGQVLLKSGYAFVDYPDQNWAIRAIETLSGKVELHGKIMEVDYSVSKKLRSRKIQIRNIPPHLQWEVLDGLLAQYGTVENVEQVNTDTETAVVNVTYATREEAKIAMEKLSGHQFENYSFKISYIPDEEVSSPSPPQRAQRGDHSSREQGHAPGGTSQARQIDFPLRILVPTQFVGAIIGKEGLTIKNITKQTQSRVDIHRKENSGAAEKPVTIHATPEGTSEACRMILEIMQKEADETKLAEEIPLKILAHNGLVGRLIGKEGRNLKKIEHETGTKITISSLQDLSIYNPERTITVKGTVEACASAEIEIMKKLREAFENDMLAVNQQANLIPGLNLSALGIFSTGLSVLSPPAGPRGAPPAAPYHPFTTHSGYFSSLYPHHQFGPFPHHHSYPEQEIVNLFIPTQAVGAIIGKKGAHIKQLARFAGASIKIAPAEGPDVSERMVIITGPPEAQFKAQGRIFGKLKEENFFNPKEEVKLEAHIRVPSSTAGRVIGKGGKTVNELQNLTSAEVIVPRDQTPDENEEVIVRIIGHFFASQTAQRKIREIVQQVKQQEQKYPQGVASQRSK
UniProt P29590: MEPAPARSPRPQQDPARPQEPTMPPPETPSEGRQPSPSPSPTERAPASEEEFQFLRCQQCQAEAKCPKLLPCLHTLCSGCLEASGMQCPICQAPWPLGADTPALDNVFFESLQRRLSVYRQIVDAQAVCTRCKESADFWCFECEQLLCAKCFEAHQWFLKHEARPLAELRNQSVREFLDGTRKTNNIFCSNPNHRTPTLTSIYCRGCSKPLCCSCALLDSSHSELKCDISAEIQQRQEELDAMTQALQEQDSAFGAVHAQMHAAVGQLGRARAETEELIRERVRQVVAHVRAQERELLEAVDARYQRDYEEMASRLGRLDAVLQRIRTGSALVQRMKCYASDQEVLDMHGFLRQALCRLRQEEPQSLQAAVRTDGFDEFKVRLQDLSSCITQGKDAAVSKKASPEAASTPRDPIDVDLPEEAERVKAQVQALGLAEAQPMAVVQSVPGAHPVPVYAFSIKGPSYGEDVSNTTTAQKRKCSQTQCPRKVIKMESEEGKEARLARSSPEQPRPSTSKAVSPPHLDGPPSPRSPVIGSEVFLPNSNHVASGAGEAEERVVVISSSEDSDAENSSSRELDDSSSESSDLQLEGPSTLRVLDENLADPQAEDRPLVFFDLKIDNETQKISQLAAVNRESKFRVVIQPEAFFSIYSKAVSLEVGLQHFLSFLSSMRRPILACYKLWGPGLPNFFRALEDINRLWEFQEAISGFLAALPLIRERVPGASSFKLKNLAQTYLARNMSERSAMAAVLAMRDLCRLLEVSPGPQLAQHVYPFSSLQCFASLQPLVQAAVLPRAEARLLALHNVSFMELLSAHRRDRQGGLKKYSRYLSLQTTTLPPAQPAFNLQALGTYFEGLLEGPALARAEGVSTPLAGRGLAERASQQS
UniProt Q14258: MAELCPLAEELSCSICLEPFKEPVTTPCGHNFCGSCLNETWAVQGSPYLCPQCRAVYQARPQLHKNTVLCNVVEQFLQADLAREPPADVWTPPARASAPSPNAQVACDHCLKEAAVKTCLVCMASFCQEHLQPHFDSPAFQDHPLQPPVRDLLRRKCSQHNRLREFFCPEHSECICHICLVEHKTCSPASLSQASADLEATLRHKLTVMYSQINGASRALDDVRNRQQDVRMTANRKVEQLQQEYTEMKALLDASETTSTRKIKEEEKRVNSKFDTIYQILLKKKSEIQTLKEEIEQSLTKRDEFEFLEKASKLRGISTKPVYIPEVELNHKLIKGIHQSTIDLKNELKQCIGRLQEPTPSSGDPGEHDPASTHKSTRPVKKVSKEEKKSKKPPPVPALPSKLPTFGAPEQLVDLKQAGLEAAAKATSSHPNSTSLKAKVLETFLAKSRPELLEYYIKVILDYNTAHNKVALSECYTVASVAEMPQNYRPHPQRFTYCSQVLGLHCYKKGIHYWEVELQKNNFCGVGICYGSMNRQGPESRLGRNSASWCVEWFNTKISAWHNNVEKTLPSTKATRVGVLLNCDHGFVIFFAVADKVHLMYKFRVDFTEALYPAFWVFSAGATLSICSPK

B1: TRIM29 (protein, UniProt Q14134 1-588)
chain: MEAADASRSNGSSPEARDARSPSGPSGSLENGTKADGKDAKTTNGHGGEAAEGKSLGSALKPGEGRSALFAGNEWRRPIIQFVESGDDKNSNYFSMDSMEGKRSPYAGLQLGAAKKPPVTFAEKGELRKSIFSESRKPTVSIMEPGETRRNSYPRADTGLFSRSKSGSEEVLCDSCIGNKQKAVKSCLVCQASFCELHLKPHLEGAAFRDHQLLEPIRDFEARKCPVHGKTMELFCQTDQTCICYLCMFQEHKNHSTVTVEEAKAEKETELSLQKEQLQLKIIEIEDEAEKWQKEKDRIKSFTTNEKAILEQNFRDLVRDLEKQKEEVRAALEQREQDAVDQVKVIMDALDERAKVLHEDKQTREQLHSISDSVLFLQEFGALMSNYSLPPPLPTYHVLLEGEGLGQSLGNFKDDLLNVCMRHVEKMCKADLSRNFIERNHMENGGDHRYVNNYTNSFGGEWSAPDTMKRYSMYLTPKGGVRTSYQPSSPGRFTKETTQKNFNNLYGTKGNYTSRVWEYSSSIQNSDNDLPVVQGSSSFSLKGYPSLMRSQSPKAQPQTWKSGKQTMLSHYRPFYVNKGNGIGSNEAP
B2: RSF1 (protein, UniProt Q96T23 1-1441)
chain: MATAAAAAAVMAPPGCPGSCPNFAVVCSFLERYGPLLDLPELPFPELERVLQAPPPDVGNGEVPKELVELHLKLMRKIGKSVTADRWEKYLIKICQEFNSTWAWEMEKKGYLEMSVECKLALLKYLCECQFDDNLKFKNIINEEDADTMRLQPIGRDKDGLMYWYQLDQDHNVRMYIEEQDDQDGSSWKCIVRNRNELAETLALLKAQIDPVLLKNSSQQDNSSRESPSLEDEETKKEEETPKQEEQKESEKMKSEEQPMDLENRSTANVLEETTVKKEKEDEKELVKLPVIVKLEKPLPENEEKKIIKEESDSFKENVKPIKVEVKECRADPKDTKSSMEKPVAQEPERIEFGGNIKSSHEITEKSTEETEKLKNDQQAKIPLKKREIKLSDDFDSPVKGPLCKSVTPTKEFLKDEIKQEEETCKRISTITALGHEGKQLVNGEVSDERVAPNFKTEPIETKFYETKEESYSPSKDRNIITEGNGTESLNSVITSMKTGELEKETAPLRKDADSSISVLEIHSQKAQIEEPDPPEMETSLDSSEMAKDLSSKTALSSTESCTMKGEEKSPKTKKDKRPPILECLEKLEKSKKTFLDKDAQRLSPIPEEVPKSTLESEKPGSPEAAETSPPSNIIDHCEKLASEKEVVECQSTSTVGGQSVKKVDLETLKEDSEFTKVEMDNLDNAQTSGIEEPSETKGSMQKSKFKYKLVPEEETTASENTEITSERQKEGIKLTIRISSRKKKPDSPPKVLEPENKQEKTEKEEEKTNVGRTLRRSPRISRPTAKVAEIRDQKADKKRGEGEDEVEEESTALQKTDKKEILKKSEKDTNSKVSKVKPKGKVRWTGSRTRGRWKYSSNDESEGSGSEKSSAASEEEEEKESEEAILADDDEPCKKCGLPNHPELILLCDSCDSGYHTACLRPPLMIIPDGEWFCPPCQHKLLCEKLEEQLQDLDVALKKKERAERRKERLVYVGISIENIIPPQEPDFSEDQEEKKKDSKKSKANLLERRSTRTRKCISYRFDEFDEAIDEAIEDDIKEADGGGVGRGKDISTITGHRGKDISTILDEERKENKRPQRAAAARRKKRRRLNDLDSDSNLDEEESEDEFKISDGSQDEFVVSDENPDESEEDPPSNDDSDTDFCSRRLRRHPSRPMRQSRRLRRKTPKKKYSDDDEEEESEENSRDSESDFSDDFSDDFVETRRRRSRRNQKRQINYKEDSESDGSQKSLRRGKEIRRVHKRRLSSSESEESYLSKNSEDDELAKESKRSVRKRGRSTDEYSEADEEEEEEEGKPSRKRLHRIETDEEESCDNAHGDANQPARDSQPRVLPSEQESTKKPYRIESDEEEDFENVGKVGSPLDYSLVDLPSTNGQSPGKAIENLIGKPTEKSQTPKDNSTASASLASNGTSGGQEAGAPEEEEDELLRVTDLVDYVCNSEQL

Biological target: HA-IGF2BP2 (insulin-like growth factor 2 mRNA-binding protein 2) (UniProt Q9Y6M1)
Assay: affinity purification with mass spectrometry; IP-MS in 293T cells transfected with HA-IGF2BP2 or HA-NC; Pierce Co-immunoprecipitation Kit, Pierce IP Lysis Buffer, protein A/G beads, 4 °C overnight

Row | Molecule | binding
1 | PML (from UniProt P29590 1-882) | binds
2 | TRIM25 (from UniProt Q14258 1-630) | binds
3 | B1 | binds
4 | B2 | binds

No constants are given. Whether binding was seen depends on the method and setting. In cells and extracts the contact can be indirect. A yes stands for co-enrichment or nearness to the bait. Other partners may have been found.
